Screening data, single-dose tests

Data taken from ChEMBL document CHEMBL3988442, “University of Dundee, Small-Polar-MMV Screening Library” (2021).

T. brucei: 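Whole-parasite assay of Trypanosoma brucei over 72 hours; the read-out is not stated. Concentration: 30 µM. Higher reads as stronger inhibition (inferred: compounds with an IC50 in retests scored well above the rest). Values scatter widely below zero; nearly all retest evidence comes from the higher of the two concentrations used. Of about 64,000 compounds tested this way, about 940 (1.5%) reached 50% or more in at least one test.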
Toxoplasma: 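Assay of Toxoplasma gondii numbers, read through their beta-galactosidase reporter with a colour substrate. Tested at 10 µM. The record gives no direction; the compounds picked for IC50 retests had high values, so higher reads as fewer parasites. About 67,000 compounds were tested under these conditions; 0.38% (about 260) showed 50% or more at least once.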

Results are given as percent effect.
The controls that fix the scale are not given in the record; negative values are as filed.
The compounds are a random part of those screened.

compound: O=C1CN(S(=O)(=O)c2ccc(F)cc2)CC(O)CN1CC1CC1 (configuration not stated)
T. brucei: -6.297
Toxoplasma: -13.03

compound: O=C(O)C(F)(F)F.[H][C@]12C[C@@H](CN(C)C)N(C(C)=O)[C@@]1([H])CCN(C(=O)Cc1cccs1)C2
T. brucei: -71.88
Toxoplasma: -25.81

compound: CC(C)Cn1ncc2cc(C(=O)N(C)Cc3cccc(O)c3)cnc21
T. brucei: -18.43
Toxoplasma: 0.05294

compound: CCOc1ccc2c(c1)CN(Cc1nc3c(cnn3C)c(=O)[nH]1)CC2
T. brucei: -18.87
Toxoplasma: -11.71

compound: CSCC(=O)Nc1cccc(Oc2ccccn2)c1
T. brucei: 29.19
Toxoplasma: 7.558

compound: CNC(=O)c1cc2c(nc1NCC(C)C)CCN(c1ncccn1)CC2.O=C(O)C(F)(F)F
T. brucei: 98.85
Toxoplasma: 2.482

compound: COCC(=O)N1CCC(c2cc3nc(C)cc(C(F)(F)F)n3n2)CC1
T. brucei: -18.9
Toxoplasma: -5.349

compound: Cc1ccsc1-c1nccn1CCS(C)(=O)=O
T. brucei: -4.985
Toxoplasma: -7.465

compound: CN(Cc1ccccc1)C(=O)CCN1C[C@H](C2CC2)[C@@H](N(C)C)C1
T. brucei: -5.146
Toxoplasma: 13.74

compound: O=C(c1coc(-c2ccccc2)n1)N1CCCCC1
T. brucei: -71.1
Toxoplasma: -18.79

compound: CC(C)(C)C(O)CN1CCN(C(=O)c2ccc3c(c2)COC3)CC1 (configuration not stated)
Toxoplasma: 31.01

compound: Cn1cc(N2CCC3(CCCN(C(=O)c4ccnn4C)C3)C2=O)cn1 (configuration not stated)
T. brucei: -11.85
Toxoplasma: 11.46

compound: O=C(NC1CC1)N1CCc2ccc(=O)n(CCN3CCCC3)c2CC1.O=C(O)C(F)(F)F
T. brucei: -46.81
Toxoplasma: 25.7

compound: CSCC(CCO)NC(=O)Nc1ccc(C)cc1C (configuration not stated)
T. brucei: -23.86
Toxoplasma: -17.44

compound: CCOCc1ncn2c1CN(C(=O)Nc1ccccc1CC)CC2
T. brucei: -11.94
Toxoplasma: 29.57

compound: CCCc1nc(CN2CCOC(Cn3cncn3)C2)cs1 (configuration not stated)
T. brucei: 0.9373
Toxoplasma: 32.65

compound: Cc1ccccc1CNC(=O)N1CCC(n2cncn2)CC1
T. brucei: 8.793
Toxoplasma: -16.39

compound: O=C1C(N2CCN(c3ccc(O)cc3)CC2)CCN1C1CCOCC1 (configuration not stated)
T. brucei: -20.26
Toxoplasma: 24.97

compound: COc1ccccc1CC1CCCN1C(=O)c1cn[nH]c1C (configuration not stated)
T. brucei: -3.11
Toxoplasma: 1.81

compound: CC(C)n1cc(CN2CCCN(C(=O)C(C)n3cccn3)CC2)cn1 (configuration not stated)
T. brucei: -6.325
Toxoplasma: -6.738

compound: c1ccc(OCCCN2CCN(c3ccc4nncn4n3)CC2)cc1
T. brucei: 53.47
Toxoplasma: 7.411

compound: COc1c(C)cnc(CN(C)C(=O)c2ccccc2O)c1C
T. brucei: 23.97
Toxoplasma: 2.432

compound: CCn1cc(CNc2ccc3nccnc3c2)cn1
T. brucei: 99.73
Toxoplasma: -3.291

compound: O=C(NCC1(O)CCC1)c1c(O)cc(F)cc1F
T. brucei: -37.64

compound: FC(F)(F)COc1cccc(-c2nc3c([nH]2)CCNC3)c1
T. brucei: 24.85
Toxoplasma: 10.41

compound: Cc1ncncc1C(=O)N1CCOC(c2nc(C(C)C)n[nH]2)C1 (configuration not stated)
T. brucei: -8.868
Toxoplasma: 5.094

compound: Cc1ccc(NS(=O)(=O)c2cc3c(c(C(=O)O)c2)OCCO3)cc1C
T. brucei: -2.762
Toxoplasma: -13.18

compound: CC(=O)N1CCn2c(COCc3csc(C)n3)cnc2C1C (configuration not stated)
T. brucei: 17.91
Toxoplasma: 0.1068

compound: CC(C)CN1CCC(NC(=O)c2ccc(Cl)cc2Cl)CC1
T. brucei: -12.53
Toxoplasma: -5.126

compound: CCNCCOc1ccc(-c2cc(N)nc3[nH]ccc23)cc1
T. brucei: 21.45
Toxoplasma: 6.099

compound: CCOCC1CN(Cc2cnn(C)c2)Cc2cnn(C)c21 (configuration not stated)
T. brucei: 31.35
Toxoplasma: 2.081

compound: [H][C@@]12CCC(=O)N(CCCOC)[C@]1([H])CCN(c1ccnc3ccccc13)C2
Toxoplasma: 2.426

compound: CNC(=O)N1CCc2nc(C(=O)Nc3cccnc3)sc2CC1
T. brucei: -4.808
Toxoplasma: -2.212

compound: CSCC(CCO)NC(=O)Nc1cc(F)ccc1C (configuration not stated)
T. brucei: -11.69
Toxoplasma: -24.82

compound: CCc1cc(C(=O)N2CCc3c(ncn3CCc3ccccc3)C2)[nH]n1
T. brucei: -27.81
Toxoplasma: -2.466

compound: CC(Nc1cccc(COCc2ccco2)c1)C(=O)NC(N)=O (configuration not stated)
T. brucei: -26.36
Toxoplasma: 1.434

compound: CCCN1CCC(N2CCOC(Cc3cccc(OC)c3)C2)CC1 (configuration not stated)
T. brucei: -34.73
Toxoplasma: 8.115

compound: COc1ccccc1Oc1ncccc1CNC(=O)C(C)N1CCCC1 (configuration not stated)
T. brucei: 5.165
Toxoplasma: 3.838

compound: CC1CCCCN1C(=O)Cn1cnc(C#N)n1 (configuration not stated)
T. brucei: -6.432
Toxoplasma: -8.959

compound: COC(=O)c1ccc(Cl)c(NS(=O)(=O)c2cn(C)cn2)c1
T. brucei: 1.151
Toxoplasma: 3.073

compound: O=C(c1cccnc1)N1CCC2(CC1)CCN(Cc1ccccn1)C2=O
T. brucei: -37.43
Toxoplasma: 3.278

4 of the entries, repeated:

- Cc1ccsc1-c1nccn1CCS(C)(=O)=O : T. brucei: -4.985%; Toxoplasma: -7.465%
- COCC(=O)N1CCC(c2cc3nc(C)cc(C(F)(F)F)n3n2)CC1 : T. brucei: -18.9%; Toxoplasma: -5.349%
- CCc1cc(C(=O)N2CCc3c(ncn3CCc3ccccc3)C2)[nH]n1 : T. brucei: -27.81%; Toxoplasma: -2.466%
- CC(Nc1cccc(COCc2ccco2)c1)C(=O)NC(N)=O (configuration not stated) : T. brucei: -26.36%; Toxoplasma: 1.434%